Laboratory results published in the supplement of paper PMC8104966.
“And” between values parts separate entries of the source, which are not always exact repeats. Identical values can stand only once. This is one part of the list. Single values are uncertain here, since repeats match poorly.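 Fusion between ACE2-bearing and full-length-spike-bearing U2OS cells was measured by imaging as the percentage of nuclei with both cell types' fluorescent markers. An inhibitory hit is a non-toxic compound whose fusion z-score is below -3, more than three standard deviations beneath the plate's DMSO wells.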

System: U2OS ACE2 x SARS-CoV-2 spike co-culture
Assay: cell-cell fusion (fraction fused) z-score vs plate DMSO control; higher = more fusion
Conditions: 30 µM; 5 h; toxicity class: non-toxic, passed QC

| SMILES | cell-cell fusion (z-score) |
| --- | --- |
| Cc1c(CN2CCN(C(=O)[C@H](C)O)CC2)sc2c(N3CCOCC3)nc(-c3cnc(N)nc3)nc12 | inactive: 1.46 |
| CCOCCOc1ccccc1C(N)=O | inactive: 1.58 |
| Clc1ccccc1C(c1ccccc1)(c1ccccc1)n1ccnc1 [Clotrimazole] | inactive: 0.907 |
| CC(C)n1c(/C=C/[C@@H](O)C[C@@H](O)CC(=O)[O][Na])c(-c2ccc(F)cc2)c2ccccc21 [Fluvastatin sodium (Lescol)] | inactive: 1.04 |
| C[C@]12C=CC(=O)C=C1CC[C@H]1[C@@H]3C[C@@H](O)[C@](O)(C(=O)CO)[C@@]3(C)C[C@H](O)[C@@]12F [Triamcinolone] | inactive: 1.08 |
| CN1CCC(=C2c3ccccc3CC(=O)c3sccc32)CC1.O=C(O)/C=C/C(=O)O | inactive: 3.94 |
| CCCCOC(=O)c1ccccc1C(=O)OCCCC | inactive: 3.63 |
| COc1ccc2c(c1O)-c1c(OC)c(OC)cc3c1[C@H](C2)N(C)CC3 | inactive: 1.48 |
| C=C1CC[C@H](O)C/C1=C/C=C1\CCCC2(C)C1CCC2C(C)CCCC(C)C (stereo partly specified) | inactive: 1.39 |
| Cn1cc(-c2ccc3nnc(Sc4ccc5ncccc5c4)n3n2)cn1 | inactive: 0.888 |
| CC(C(=O)O)c1cccc(C(=O)c2ccccc2)c1 (stereo unspecified) [Ketoprofen] | inactive: 2.54 |
| O=P1(N(CCCl)CCCl)NCCCO1 (stereo unspecified) [Cyclophosphamide monohydrate] | inactive: 1.78 |
| Nc1cc2c(ncn2CCOCP(=O)(O)O)c(=O)[nH]1.O [PMEG hydrate] | inactive: 2.74 |
| C=CCNC(N)=S | inactive: 1.46 |
| COc1ccc2c(c1)[nH]c1c(C)nccc12 | inactive: 0.673 |
| C1CNCCN1.C[C@]12CCC3c4ccc(OS(=O)(=O)O)cc4CCC3C1CCC2=O (stereo partly specified) | inactive: 3.23 |
| CCCCCCCCCCCCCCCC(=O)OC(CC(=O)O)C[N+](C)(C)C.[Cl-] (racemic) [Palmitoyl-DL-Carnitine chloride] | inactive: -1.02 |
| N=C1NCCC(C2NC(=O)/C(=C\NC(N)=O)NC(=O)C(CNC(=O)CC(N)CCCN)NC(=O)C(CO)NC(=O)C(N)CNC2=O)N1.O=S(=O)(O)O (stereo unspecified) | inactive: 1.14 |
| C=C[C@@]1(C)CC(=O)[C@@]2(O)[C@](C)(O1)[C@@H](O)[C@@H](O)C1C(C)(C)CC[C@H](O)[C@@]12C (stereo partly specified) | inactive: -0.381 |
| CC(=O)OCC(=O)[C@H]1CCC2C3CCC4=CC(=O)CC[C@]4(C)C3CC[C@@]21C (stereo partly specified) | inactive: 1.03 |
| C=C1/C(=C/C=C2\CCC[C@@]3(C)[C@H]2CC[C@H]3[C@H](C)/C=C/[C@@H](C)C(C)C)C[C@H](O)C[C@@H]1O [Doxercalciferol (Hectorol)] | inactive: 1.44 |
| CCCOc1ccc2nc(NC(=O)OC)[nH]c2c1 | inactive: 3.07 |
| N=C(N)c1ccc(OCCCCCOc2ccc(C(=N)N)cc2)cc1.O=[SH](=O)OCCO.O=[SH](=O)OCCO [Pentamidine isethionate] | inactive: 2.06 |
| NNCCc1ccccc1.O=S(=O)(O)O | inactive: 2.04 |

| SMILES | cell-cell fusion (z-score) |
| --- | --- |
| NNCCc1ccccc1.O=S(=O)(O)O [Phenelzine sulfate] | inactive: -1.19 |
| Cl.N=C(N)NC(=O)Cc1c(Cl)cccc1Cl [Guanfacine hydrochloride] | inactive: 1.03 |
| Nc1ccncc1N [Amifampridine] | inactive: 1.58 |
| COc1cc(C)c(C(=O)O)c(O)c1 | inactive: 1.03 |
| Nc1ncnc2[nH]cnc12.Nc1ncnc2[nH]cnc12.O=S(=O)(O)O [Adenine sulfate] | inactive: 2.25 |
| Nc1nc(Cl)nc2c1ncn2[C@@H]1O[C@H](CO)[C@@H](O)[C@@H]1F [Clofarabine] | active: -3.19 |
| CC(=O)OCC1=C(C(=O)[O-])N2C(=O)[C@@H](NC(=O)CCC[C@@H](N)C(=O)[O-])[C@H]2SC1.[Zn+2] [Cephalosporin C zinc salt] | inactive: 2.53 |
| Cl.O=c1cc(N2CCOCC2)oc2c(-c3ccccc3)cccc12 [LY-294,002 hydrochloride] | inactive: 2.03 |
| O=C(Nc1nc(-c2cc(Cl)cs2)c(N2CCN(C3CCCCC3)CC2)s1)c1cnc(N2CCC(C(=O)O)CC2)c(Cl)c1 [Avatrombopag] | inactive: 0.979 |
| CNCCC(Oc1ccccc1OC)c1ccccc1.Cl (stereo unspecified) [Nisoxetine hydrochloride] | inactive: 2.4 |
| CN1CCN(c2cccc(Nc3nc4c(-c5ccc(S(C)(=O)=O)cc5)cccn4n3)c2)CC1 | inactive: -1.29 and inactive: -0.227 |
| COc1cc2c(cc1OC)C1CC(=O)C(CC(C)C)CN1CC2 (stereo unspecified) [Tetrabenazine] | inactive: 1.48 |
| C[C@@H]1C[C@H]2[C@@H]3C[C@H](F)C4=CC(=O)C=C[C@]4(C)[C@@]3(F)[C@@H](O)C[C@]2(C)[C@@]1(O)C(=O)CO [Flumethasone] | inactive: 3.04 |
| NCCS [2-Aminoethanethiol] | inactive: 3.59 |
| CN(C)CCOC(c1ccccc1)c1ccccc1.Cl [Diphenhydramine hydrochloride] | inactive: 2.09 |
| CC(Oc1c(Cl)cccc1Cl)C1=NCCN1.Cl (stereo unspecified) | inactive: 2.38 |
| Cl.NCCc1ccc(O)c(O)c1 [Dopamine hydrochloride] | inactive: 0.174 |
| Nc1nccs1 | inactive: 2.22 |
| C[C@]12CC[C@H](O)CC1=CC[C@@H]1[C@@H]2CC[C@]2(C)C(=O)CC[C@@H]12 [Dehydroepiandrosterone] | inactive: 3.13 |
| CNCCC=C1c2ccccc2CCc2ccccc21.Cl [Nortriptyline hydrochloride] | inactive: 1.45 |
| CNCCC=C1c2ccccc2CCc2ccccc21.Cl | inactive: 0.13 |
| CC(=O)O[C@H]1C[C@@]2(C)[C@@H](C[C@@H](O)C3[C@]2(C)CC[C@H]2[C@H](C)[C@H](O)CC[C@]32C)/C1=C(/CCC=C(C)C)C(=O)O (stereo partly specified) | inactive: 0.916 |
| CC(C)Cn1cnc2c(N)nc3ccccc3c21 [Imiquimod] | inactive: 1.63 |
| COC(=O)N1CCN(C(=O)Cc2ccc(Cl)c(Cl)c2)C(CN2CCCC2)C1.O=C(O)/C=C/C(=O)O (stereo unspecified) | inactive: 1.71 |

| SMILES | cell-cell fusion (z-score) |
| --- | --- |
| CC(=O)OCC1=C(C(=O)[O-])N2C(=O)[C@@H](NC(=O)Cc3cccs3)[C@H]2SC1.[Na+] | inactive: 1.13 |
| CC(=O)OCC1=C(C(=O)[O-])N2C(=O)[C@@H](NC(=O)Cc3cccs3)[C@H]2SC1.[Na+] [Cephalothin sodium] | inactive: 2.59 |
| NC(=O)c1ccc(-c2nc(-c3ccc4c(c3)OCO4)c(-c3ccccn3)[nH]2)cc1 | inactive: 1.49 |
| CC(C)(C)c1ccc(C(O)CCCN2CCC(C(O)(c3ccccc3)c3ccccc3)CC2)cc1 (stereo unspecified) [Terfenadine] | inactive: 0.399 |
| CC(C)(C)c1ccc(C(O)CCCN2CCC(C(O)(c3ccccc3)c3ccccc3)CC2)cc1 (stereo unspecified) | inactive: 2.31 |
| Cc1ccc(C)c(OCCCC(C)(C)C(=O)O)c1 | inactive: 0.31 |
| CCc1c(C)[nH]c2c1C(=O)C(CN1CCOCC1)CC2.Cl (stereo unspecified) [Molindone hydrochloride] | inactive: 1.5 |
| O.O=P1(N(CCCl)CCCl)NCCCO1 (stereo unspecified) | inactive: 1.13 |
| O.O=P1(N(CCCl)CCCl)NCCCO1 (stereo unspecified) [Cyclophosphamide monohydrate] | inactive: 1.57 |
| O=C1CCc2ccc(OCCCCN3CCN(c4cccc(Cl)c4Cl)CC3)cc2N1 | inactive: 0.625 |
| CC(=O)O[C@@H]1CC[C@@]2(C)C(C[C@@H](OC(C)=O)[C@@]3(C)C4=CC(=O)O[C@@H](c5ccoc5)[C@]4(C)CCC23)C1(C)C (stereo partly drawn) [3alpha-ACETOXYDIHYDRODEOXYGEDUNIN] | inactive: 2.52 |
| Cl.NC(=O)c1ccc(OCC(O)CN2CC=C(c3ccc(F)cc3)CC2)cc1 (stereo unspecified) | inactive: 2.29 |
| CC(=O)OCC1=C(C(=O)[O-])N2C(=O)[C@@H](NC(=O)CSc3ccncc3)[C@H]2SC1.[Na+] [Cephapirin Sodium] | inactive: 1.75 |
| C=C(C)C1CC=C(CO)CC1 (stereo unspecified) | inactive: 2.13 |
| CC(C)[C@@H]1CC[C@@H](C)CC1=O | inactive: 1.83 |
| Br.CN(C)CCCC1(c2ccc(F)cc2)OCc2cc(C#N)ccc21 (stereo unspecified) [Citalopram HBr] | inactive: 2.61 |
| CS(=O)(=O)O.O.O=C(O)c1cn(C2CC2)c2cc(N3C[C@@H]4C[C@H]3CN4)c(F)cc2c1=O | inactive: 1.81 |
| Cc1nnc(NS(=O)(=O)c2ccc(N)cc2)s1 | inactive: 1.11 |
| C[C@@](Cc1ccc(O)c(O)c1)(NN)C(=O)O.O [Carbidopa Hydrate] | inactive: 1.12 |
| CC[C@]1(O)CC2CN(CCc3c([nH]c4ccccc34)[C@@](C(=O)OC)(c3cc4c(cc3OC)N(C)[C@H]3[C@@](O)(C(=O)OC)[C@H](OC(C)=O)[C@]5(CC)C=CCN6CC[C@]43[C@@H]65)C2)C1.O=S(=O)(O)O (stereo partly specified) | inactive: 1.04 |
| COc1ccc(S(=O)(=O)Nc2cccnc2Nc2ccc(O)cc2)cc1 [ABT-751(Colchicine)] | inactive: -1.23 |
| O=C1[N-]C(=O)C(c2ccccc2)(c2ccccc2)N1.[Na+] [Phenytoin sodium] | inactive: 3.81 |
| COc1ccc(C(=O)c2ccccc2)c(O)c1O | inactive: 2.14 |
